Data from patent US12557545B2, “Compound and organic light emitting device comprising the same” (LG Chem, Ltd., priority 2020, dated 2026).

Assay: Organic light emitting device evaluation (compound as dopant of light emitting layer)
Details: OLED; for Driving voltage (V @ 10 mA/cm^2): compound as dopant of light emitting layer (2:98 with Compound D); for EQE (% @ 10 mA/cm^2) / Lifetime (hr) (T90 @ 500 nit): compound as dopant of light emitting layer; for EQE (% @ 10 mA/cm^2): external quantum efficiency; for Lifetime (hr) (T90 @ 500 nit): time for luminance to fall to 90% of initial luminance (500 nit)

Row | SMILES | Driving voltage (V @ 10 mA/cm^2) [V] | EQE (% @ 10 mA/cm^2) [%] | Lifetime (hr) (T90 @ 500 nit) [h]
1 | Cc1cccc(N(c2ccc3c4c5ccc6c(c5ccc4n(-c4ccccc4)c3c2)c2ccc(N(c3ccc(C(C)(C)C)cc3)c3ccc4c5c7ccc8c(c7ccc5n(-c5ccccc5)c4c3)c3ccc(N(c4cccc(C)c4)c4cccc5c4oc4ccccc45)cc3n8-c3ccccc3)cc2n6-c2ccccc2)c2cccc3c2oc2ccccc23)c1 [Compound 1] | 4.63 | 8.89 | 250
2 | Cc1cccc(N(c2ccc3c4c5ccc6c(c5ccc4n(-c4ccccc4)c3c2)c2ccc(N(c3cccc(C)c3)c3cccc4c3oc3ccccc34)cc2n6-c2ccccc2)c2ccc3c4c5ccc6c(c5ccc4n(-c4ccccc4)c3c2)c2ccc(N(c3cccc(C)c3)c3cccc4c3oc3ccccc34)cc2n6-c2ccccc2)c1 [Compound 2] | 4.61 | 8.61 | 239
3 | Cc1cccc(N(c2ccc3c4c5ccc6c(c5ccc4n(-c4ccccc4)c3c2)c2ccc(N(c3ccc4c5c7ccc8c(c7ccc5n(-c5ccccc5)c4c3)c3ccc(N(c4cccc(C)c4)c4cccc5c4oc4ccccc45)cc3n8-c3ccccc3)c3cccc4c3oc3ccccc34)cc2n6-c2ccccc2)c2cccc3c2oc2ccccc23)c1 [Compound 3] | 4.65 | 8.78 | 268
4 | Cc1cccc(N(c2ccc3c4c5ccc6c(c5ccc4n(-c4ccccc4)c3c2)c2ccc(N(c3ccccc3)c3ccc4c5c7ccc8c(c7ccc5n(-c5ccccc5)c4c3)c3ccc(N(c4cccc(C)c4)c4cccc5c4oc4ccccc45)cc3n8-c3ccccc3)cc2n6-c2ccccc2)c2cccc3c2oc2ccccc23)c1 [Compound 4] | 4.67 | 8.67 | 257
5 | Cc1cccc(N(c2ccc3c4c5ccc6c(c5ccc4n(-c4ccccc4)c3c2)c2ccc(N(c3ccc(-c4cc5ccccc5o4)cc3)c3ccc4c5c7ccc8c(c7ccc5n(-c5ccccc5)c4c3)c3ccc(N(c4cccc(C)c4)c4cccc5c4oc4ccccc45)cc3n8-c3ccccc3)cc2n6-c2ccccc2)c2cccc3c2oc2ccccc23)c1 [Compound 5] | 4.62 | 8.74 | 265
6 | CC(C)(C)c1ccc(N(c2ccc(C(C)(C)C)cc2)c2ccc3c4c5ccc6c(c5ccc4n(-c4ccccc4)c3c2)c2ccc(N(c3ccc(C(C)(C)C)cc3)c3ccc4c5c7ccc8c(c7ccc5n(-c5ccccc5)c4c3)c3ccc(N(c4ccc(C(C)(C)C)cc4)c4ccc(C(C)(C)C)cc4)cc3n8-c3ccccc3)cc2n6-c2ccccc2)cc1 [Compound 6] | 4.58 | 8.78 | 264
7 | CC(C)(C)c1ccc(N(c2ccc(C(C)(C)C)cc2)c2ccc3c4c5ccc6c(c5ccc4n(-c4ccccc4)c3c2)c2ccc(N(c3ccc4c5c7ccc8c(c7ccc5n(-c5ccccc5)c4c3)c3ccc(N(c4ccc(C(C)(C)C)cc4)c4ccc(C(C)(C)C)cc4)cc3n8-c3ccccc3)c3cccc4c3oc3ccccc34)cc2n6-c2ccccc2)cc1 [Compound 7] | 4.61 | 8.77 | 259
8 | CC(C)(C)c1ccc(N(c2ccc(C(C)(C)C)cc2)c2ccc3c4c5ccc6c(c5ccc4n(-c4ccccc4)c3c2)c2ccc(N(c3ccc(-c4cc5ccccc5o4)cc3)c3ccc4c5c7ccc8c(c7ccc5n(-c5ccccc5)c4c3)c3ccc(N(c4ccc(C(C)(C)C)cc4)c4ccc(C(C)(C)C)cc4)cc3n8-c3ccccc3)cc2n6-c2ccccc2)cc1 [Compound 8] | 4.67 | 8.69 | 235
9 | CC(C)(C)c1ccc(N(c2ccc3c4c5ccc6c(c5ccc4n(-c4ccccc4)c3c2)c2ccc(N(c3ccc(-c4ccc5c(c4)c4ccccc4n5-c4ccccc4)cc3)c3ccc4ccccc4c3)cc2n6-c2ccccc2)c2ccc3c4c5ccc6c(c5ccc4n(-c4ccccc4)c3c2)c2ccc(N(c3ccc(-c4ccc5c(c4)c4ccccc4n5-c4ccccc4)cc3)c3ccc4ccccc4c3)cc2n6-c2ccccc2)cc1 [Compound 9] | 4.59 | 8.73 | 265
10 | CC(C)(C)c1ccc(N(c2ccc3c4c5ccc6c(c5ccc4n(-c4ccccc4)c3c2)c2ccc(N(c3ccccc3)c3ccc4cc(-c5cc7ccccc7o5)ccc4c3)cc2n6-c2ccccc2)c2ccc3c4c5ccc6c(c5ccc4n(-c4ccccc4)c3c2)c2ccc(N(c3ccccc3)c3ccc4cc(-c5cc7ccccc7o5)ccc4c3)cc2n6-c2ccccc2)cc1 [Compound 10] | 4.61 | 8.76 | 271
11 | CC(C)(C)c1ccc(N(c2ccc3c4c5ccc6c(c5ccc4n(-c4ccccc4)c3c2)c2ccc(N(c3ccccc3)c3ccccc3)cc2n6-c2ccccc2)c2ccc3c4c5ccc6c(c5ccc4n(-c4ccccc4)c3c2)c2ccc(N(c3ccccc3)c3ccccc3)cc2n6-c2ccccc2)cc1 [Compound 11] | 4.66 | 8.79 | 267
12 | c1ccc(N(c2ccccc2)c2ccc3c4c5ccc6c(c5ccc4n(-c4ccccc4)c3c2)c2ccc(N(c3ccc4cc(-c5cc7ccccc7o5)ccc4c3)c3ccc4c5c7ccc8c(c7ccc5n(-c5ccccc5)c4c3)c3ccc(N(c4ccccc4)c4ccccc4)cc3n8-c3ccccc3)cc2n6-c2ccccc2)cc1 [Compound 12] | 4.67 | 8.54 | 275
13 | CC(C)(C)c1ccc(N(c2ccc3c4c5ccc6c(c5ccc4n(-c4ccccc4)c3c2)c2ccc(N(c3ccccc3)c3ccc4ccccc4c3)cc2n6-c2ccccc2)c2ccc3c4c5ccc6c(c5ccc4n(-c4ccccc4)c3c2)c2ccc(N(c3ccccc3)c3ccc4ccccc4c3)cc2n6-c2ccccc2)cc1 [Compound 13] | 4.70 | 8.68 | 251
14 | Cc1cccc(N(c2ccc3c4c5ccc6c(c5ccc4n(-c4ccccc4)c3c2)c2ccc(-c3ccc(-c4ccc5c7c8ccc9c(c8ccc7n(-c7ccccc7)c5c4)c4ccc(N(c5cccc(C)c5)c5cccc7c5oc5ccccc57)cc4n9-c4ccccc4)cc3)cc2n6-c2ccccc2)c2cccc3c2oc2ccccc23)c1 [Compound 14] | 4.62 | 8.72 | 239
15 | Cc1cccc(N(c2ccc3c4c5ccc6c(c5ccc4n(-c4ccccc4)c3c2)c2ccc(-c3cccc(-c4ccc5c7c8ccc9c(c8ccc7n(-c7ccccc7)c5c4)c4ccc(N(c5cccc(C)c5)c5cccc7c5oc5ccccc57)cc4n9-c4ccccc4)c3)cc2n6-c2ccccc2)c2cccc3c2oc2ccccc23)c1 [Compound 15] | 4.68 | 8.69 | 254
16 | Cc1cccc(N(c2ccc3c4c5ccc6c(c5ccc4n(-c4ccccc4)c3c2)c2ccc(-c3ccc4c5c7ccc8c(c7ccc5n(-c5ccccc5)c4c3)c3ccc(N(c4cccc(C)c4)c4cccc5c4oc4ccccc45)cc3n8-c3ccccc3)cc2n6-c2ccccc2)c2cccc3c2oc2ccccc23)c1 [Compound 16] | 4.59 | 8.76 | 267
17 | Cc1cccc(N(c2ccc3c4c5ccc6c(c5ccc4n(-c4ccccc4)c3c2)c2ccc(Oc3ccc4c5c7ccc8c(c7ccc5n(-c5ccccc5)c4c3)c3ccc(N(c4cccc(C)c4)c4cccc5c4oc4ccccc45)cc3n8-c3ccccc3)cc2n6-c2ccccc2)c2cccc3c2oc2ccccc23)c1 [Compound 17] | 4.64 | 8.77 | 253
18 | Cc1cccc(N(c2ccc3c(c2)c2c4ccc5c(c4ccc2n3-c2ccccc2)c2cc(N(c3ccc(C(C)(C)C)cc3)c3ccc4c(c3)c3c6ccc7c(c6ccc3n4-c3ccccc3)c3cc(N(c4cccc(C)c4)c4cccc6c4oc4ccccc46)ccc3n7-c3ccccc3)ccc2n5-c2ccccc2)c2cccc3c2oc2ccccc23)c1 [Compound 19] | 4.67 | 8.56 | 265
19 | Cc1cccc(N(c2cccc3c2oc2ccccc23)c2cccc3c2c2c4ccc5c(c4ccc2n3-c2ccccc2)c2c(N(c3ccc(C(C)(C)C)cc3)c3cccc4c3c3c6ccc7c(c6ccc3n4-c3ccccc3)c3c(N(c4cccc(C)c4)c4cccc6c4oc4ccccc46)cccc3n7-c3ccccc3)cccc2n5-c2ccccc2)c1 [Compound 21] | 4.62 | 8.67 | 258
20 | Cc1cccc(N(c2ccc3c4c5ccc6c(c5ccc4n(-c4ccccc4)c3c2)c2ccc(N(c3cccc(C)c3)c3cccc4c3oc3ccccc34)cc2n6-c2ccccc2)c2cccc3c2oc2ccccc23)c1 [Compound F, reference compound] | 4.70 | 6.87 | 58
21 | CC(C)(C)c1ccc(N(c2ccc(C(C)(C)C)cc2)c2ccc3c4c5ccc6c(c5ccc4n(-c4ccccc4)c3c2)c2ccc(N(c3ccc(C(C)(C)C)cc3)c3ccc(C(C)(C)C)cc3)cc2n6-c2ccccc2)cc1 [Compound G, reference compound] | 4.68 | 7.11 | 67
22 | c1ccc(-n2c3ccccc3c3cc(-c4ccc(N(c5ccc6ccccc6c5)c5ccc6c7c8ccc9c(c8ccc7n(-c7ccccc7)c6c5)c5ccc(N(c6ccc(-c7ccc8c(c7)c7ccccc7n8-c7ccccc7)cc6)c6ccc7ccccc7c6)cc5n9-c5ccccc5)cc4)ccc32)cc1 [Compound H, reference compound] | 4.66 | 7.11 | 67
23 | c1ccc(N(c2ccc3cc(-c4cc5ccccc5o4)ccc3c2)c2ccc3c4c5ccc6c(c5ccc4n(-c4ccccc4)c3c2)c2ccc(N(c3ccccc3)c3ccc4cc(-c5cc7ccccc7o5)ccc4c3)cc2n6-c2ccccc2)cc1 [Compound I, reference compound] | 4.69 | 6.95 | 69
